Holding throughout (assay): co-IP; C-terminal 3x FLAG-tagged Tfb2 variants coexpressed with endogenous Tfb2 in yeast; whole-cell extract (50 mM Hepes pH 7.6, 250 mM KOAc) on FLAG-M2 agarose 2 h at 4 °C; eluted with triple FLAG peptide; Western blot for Ssl2, normalised to Tfb2
Test [1] concerns the target T1, C-terminal 3× FLAG-tagged WT Tfb2 (Saccharomyces cerevisiae) (UniProt Q02939).
T1 sequence: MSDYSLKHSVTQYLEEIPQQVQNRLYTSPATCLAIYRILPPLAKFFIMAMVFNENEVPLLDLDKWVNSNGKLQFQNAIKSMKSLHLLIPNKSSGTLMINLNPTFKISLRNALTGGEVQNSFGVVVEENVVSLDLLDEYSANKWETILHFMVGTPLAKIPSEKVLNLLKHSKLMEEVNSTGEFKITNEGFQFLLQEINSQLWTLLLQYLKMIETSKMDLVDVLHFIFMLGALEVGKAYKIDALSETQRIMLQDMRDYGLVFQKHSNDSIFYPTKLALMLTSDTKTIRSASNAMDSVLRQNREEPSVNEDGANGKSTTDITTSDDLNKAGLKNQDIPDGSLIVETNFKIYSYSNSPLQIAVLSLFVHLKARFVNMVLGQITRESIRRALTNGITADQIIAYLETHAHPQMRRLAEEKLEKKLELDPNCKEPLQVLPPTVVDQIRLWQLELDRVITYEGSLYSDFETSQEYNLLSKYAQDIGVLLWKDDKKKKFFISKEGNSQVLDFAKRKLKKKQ

The target of test [2] is T2, Tfb2 E342F, C-terminal 3× FLAG-tagged (Saccharomyces cerevisiae) (UniProt Q02939).
T2 sequence: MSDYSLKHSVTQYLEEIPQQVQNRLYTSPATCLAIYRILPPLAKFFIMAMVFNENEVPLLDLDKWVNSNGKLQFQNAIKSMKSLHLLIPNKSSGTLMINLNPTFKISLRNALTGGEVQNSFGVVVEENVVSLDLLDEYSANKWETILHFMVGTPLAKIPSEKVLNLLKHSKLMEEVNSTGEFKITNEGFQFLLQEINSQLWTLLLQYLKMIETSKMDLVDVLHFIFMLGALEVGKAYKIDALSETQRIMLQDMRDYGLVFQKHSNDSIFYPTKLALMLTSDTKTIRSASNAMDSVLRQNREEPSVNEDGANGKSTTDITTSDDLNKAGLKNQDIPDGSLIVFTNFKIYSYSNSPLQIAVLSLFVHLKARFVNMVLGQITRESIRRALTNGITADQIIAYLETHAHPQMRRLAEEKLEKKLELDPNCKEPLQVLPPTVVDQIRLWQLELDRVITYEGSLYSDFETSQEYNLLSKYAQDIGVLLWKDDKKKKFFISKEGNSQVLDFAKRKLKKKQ

For test [3], the target named is T3, Tfb2 E447K, C-terminal 3× FLAG-tagged (Saccharomyces cerevisiae) (UniProt Q02939).
T3 sequence: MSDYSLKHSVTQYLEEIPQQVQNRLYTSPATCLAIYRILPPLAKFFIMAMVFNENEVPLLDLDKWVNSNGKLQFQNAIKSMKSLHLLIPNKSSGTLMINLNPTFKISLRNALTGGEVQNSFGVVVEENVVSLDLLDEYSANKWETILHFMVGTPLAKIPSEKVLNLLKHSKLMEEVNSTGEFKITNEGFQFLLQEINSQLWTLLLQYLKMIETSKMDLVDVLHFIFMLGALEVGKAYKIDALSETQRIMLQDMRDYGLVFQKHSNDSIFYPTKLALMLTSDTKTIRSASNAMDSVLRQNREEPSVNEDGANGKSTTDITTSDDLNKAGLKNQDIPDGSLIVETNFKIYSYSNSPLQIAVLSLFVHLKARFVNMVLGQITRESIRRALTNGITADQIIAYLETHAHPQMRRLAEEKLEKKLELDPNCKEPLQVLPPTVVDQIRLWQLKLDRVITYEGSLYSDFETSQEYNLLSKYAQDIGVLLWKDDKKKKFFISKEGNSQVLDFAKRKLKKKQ

For test [4], the target named is T4, Tfb2 EK342+346RE, C-terminal 3× FLAG-tagged (Saccharomyces cerevisiae) (UniProt Q02939).
T4 sequence: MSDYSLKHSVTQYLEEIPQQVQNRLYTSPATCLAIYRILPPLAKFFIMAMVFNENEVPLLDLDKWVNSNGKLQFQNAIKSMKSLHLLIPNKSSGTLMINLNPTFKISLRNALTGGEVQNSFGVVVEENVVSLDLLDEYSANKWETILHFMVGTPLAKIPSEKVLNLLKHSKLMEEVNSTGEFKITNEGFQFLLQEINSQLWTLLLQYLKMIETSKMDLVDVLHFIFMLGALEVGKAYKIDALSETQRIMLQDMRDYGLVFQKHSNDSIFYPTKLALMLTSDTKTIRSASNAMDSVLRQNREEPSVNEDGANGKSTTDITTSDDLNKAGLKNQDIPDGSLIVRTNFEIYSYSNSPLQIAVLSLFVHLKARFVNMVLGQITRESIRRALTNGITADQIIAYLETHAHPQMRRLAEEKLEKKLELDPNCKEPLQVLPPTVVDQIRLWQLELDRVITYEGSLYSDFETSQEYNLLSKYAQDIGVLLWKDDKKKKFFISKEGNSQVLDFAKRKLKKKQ

Results are given in words; binding and its absence hold for the method and conditions named. In cells and extracts the contact can be indirect. Some entries that bind do so weakly or less than the wild type. Where a sequence is shown, tags or fusion partners need not be part of it.

B1: Ssl2 (protein, UniProt Q00578 1-843)
chain: MTDVEGYQPKSKGKIFPDMGESFFSSDEDSPATDAEIDENYDDNRETSEGRGERDTGAMVTGLKKPRKKTKSSRHTAADSSMNQMDAKDKALLQDTNSDIPADFVPDSVSGMFRSHDFSYLRLRPDHASRPLWISPSDGRIILESFSPLAEQAQDFLVTIAEPISRPSHIHEYKITAYSLYAAVSVGLETDDIISVLDRLSKVPVAESIINFIKGATISYGKVKLVIKHNRYFVETTQADILQMLLNDSVIGPLRIDSDHQVQPPEDVLQQQLQQTAGKPATNVNPNDVEAVFSAVIGGDNEREEEDDDIDAVHSFEIANESVEVVKKRCQEIDYPVLEEYDFRNDHRNPDLDIDLKPSTQIRPYQEKSLSKMFGNGRARSGIIVLPCGAGKTLVGITAACTIKKSVIVLCTSSVSVMQWRQQFLQWCTLQPENCAVFTSDNKEMFQTESGLVVSTYSMVANTRNRSHDSQKVMDFLTGREWGFIILDEVHVVPAAMFRRVVSTIAAHAKLGLTATLVREDDKIGDLNFLIGPKLYEANWMELSQKGHIANVQCAEVWCPMTAEFYQEYLRETARKRMLLYIMNPTKFQACQFLIQYHERRGDKIIVFSDNVYALQEYALKMGKPFIYGSTPQQERMNILQNFQYNDQINTIFLSKVGDTSIDLPEATCLIQISSHYGSRRQEAQRLGRILRAKRRNDEGFNAFFYSLVSKDTQEMYYSTKRQAFLVDQGYAFKVITHLHGMENIPNLAYASPRERRELLQEVLLKNEEAAGIEVGDDADNSVGRGSNGHKRFKSKAVRGEGSLSGLAGGEDMAYMEYSTNKNKELKEHHPLIRKMYYKNLKK
As to B1, the binding result in test [1] is listed as “binds”; in test [2], “no binding”; in test [3] it was “binds”; in test [4], “no binding”.

Values taken from PMC9557730.
